Laboratory results reported in PMC5777986.
Results are given in words; binding and its absence hold for the method and conditions named. In cells and extracts the contact can be indirect. Binding can be weak; no strength is given.

The chains behind the UniProt entries cited, without tags or fusion partners. Where a name states a change or a piece, a line headed by the entry shows the natural chain unless it says otherwise.
UniProt P69423: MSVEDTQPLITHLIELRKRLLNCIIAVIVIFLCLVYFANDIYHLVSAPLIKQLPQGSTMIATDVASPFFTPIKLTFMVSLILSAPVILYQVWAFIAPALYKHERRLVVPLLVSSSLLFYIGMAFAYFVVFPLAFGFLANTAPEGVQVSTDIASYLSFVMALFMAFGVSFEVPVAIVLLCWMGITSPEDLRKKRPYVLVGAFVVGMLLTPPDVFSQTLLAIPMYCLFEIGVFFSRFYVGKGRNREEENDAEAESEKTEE

Target: TatC (E. coli) (UniProt P69423)
Assay: cross-linking; inverted inner membrane vesicles (TatABC, TatEBC, TatEABC) diluted in INV-buffer, DCCD (1 µl of 50 mM in 100 µl) added, 20 min on ice, TCA precipitation, 9% Tricine SDS-PAGE, Western blot with antibodies against TatA, TatB, TatC, TatE

binding: binds
Substance: TatB (from UniProt P69425)
